Experimental data reported in PubChem BioAssay AID1487 (National Center for Advancing Translational Sciences (NCATS), 2009).
The other results are listed elsewhere or left out. These are further read-outs of the screen, such as a control signal, another cell line or another target. No call is given for them. Most of these compounds were active or inconclusive in the main read-out, so they are no random draw. Words in brackets tell the shape of the fitted curve; partial curves, single points and poor fits give uncertain potencies.

Experiment: qHTS Assay for Modulators of Lamin A Splicing
Settings: HeLa LMNA splicing GFP/RFP minigene ratio, 48 h
Outline: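 S3 HeLa stable clones carrying a lamin A-EGFP splicing minigene plus DsRed2 were seeded at 600 cells/well in Opti-MEM with 2% FBS, pin-dosed and incubated 48 h at 37°C. Acumen cytometry (488 nm) gave the GFP/RFP total-intensity ratio.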

[1] = measured here: GFP splicing reporter channel
[2] = measured here: RFP viability control channel

Row | SMILES | AC50 [1] | AC50 [2]
1 | Cc1onc(-c2ccccc2Cl)c1C(=O)Nc1nnc(-c2ccc(Cl)cc2Cl)s1 | 10 µM [rising, partial curve] | 10 µM [rising, partial curve]
2 | Cc1cc(C)n(C(C)CC(=O)Nc2ccc(C)c(F)c2)n1 (centres undefined) |  | 0.355 µM [falling, partial curve]
3 | Cc1ccc(NC(=O)Cn2cccc2)cc1Cl |  | 20 µM [rising, partial curve]
4 | CN1CCN2c3ccccc3Cc3ccccc3[C@@H]2C1 | 0.631 µM [falling, full curve, poor fit] | 14.1 µM [falling, single point]
5 | N#Cc1nc(COc2ccccc2F)oc1NCCCn1ccnc1 | 35.5 µM [rising, single point] | 
6 | Cc1ccccc1C(=O)NC(=S)Nc1sc2c(c1C#N)CCCC2 |  | 25.1 µM [rising, single point]
7 | O=S(=O)(NCC1COc2ccccc2O1)c1ccc2ccccc2c1 (centres undefined) |  | 20 µM [rising, single point]
8 | CCOc1ccc(S(=O)(=O)c2c(C(=O)c3ccccc3)cnc3cc4c(cc23)OCCO4)cc1 |  | 35.5 µM [rising, single point]
9 | O=C(Cc1ccccc1)N1CCN=C1SCc1ccc([N+](=O)[O-])cc1 |  | 22.4 µM [rising, single point]
10 | CCOC(=O)C1C(=O)C=C(N2CCOCC2)CC1c1cccc(OC)c1 (centres undefined) |  | 31.6 µM [rising, single point]
11 | CCN(CC)c1ccc(NC(=O)CN2C(=O)c3cccnc3Oc3ccc(Cl)cc32)c(C)c1 |  | 35.5 µM [falling, single point]
12 | O=C(Nc1ccccc1)Nc1ccc(Br)cc1F |  | 35.5 µM [rising, single point]
13 | CCCOc1ccc(CSC2=NCCN2)cc1[N+](=O)[O-] | 35.5 µM [falling, single point] | 12.6 µM [falling, partial curve]
14 | Cc1ccc(S(=O)(=O)Nc2ccccc2C(=O)OC(C)C(=O)Nc2ccc3ccccc3c2)cc1[N+](=O)[O-] (centres undefined) |  | 12.6 µM [rising, single point]
15 | CN(Cc1nc(C(c2ccccc2)c2ccccc2)no1)CC1COCCO1 (centres undefined) | 0.158 µM [rising, full curve] | 0.178 µM [rising, full curve, poor fit]
16 | Cc1cc(N)c2ccccc2[n+]1CCCCCCCCCCCCCC[n+]1c(C)cc(N)c2ccccc21 | 3.98 µM [falling, full curve] | 2.82 µM [falling, full curve]
17 | COc1cccc(Cn2c(NCc3ccco3)nc3c2c(=O)n(C)c(=O)n3C)c1 |  | 2 µM [rising, full curve, poor fit]
18 | Cc1cccc(/C=C2/S/C(=N/N=C3\CC4CCC3(C)C4(C)C)NC2=O)c1 (centres undefined) | 25.1 µM [falling, single point] | 35.5 µM [falling, single point]
19 | O=C(c1ccccc1Oc1ccccc1)N1CCN(c2ccccc2)CC1 |  | 17.8 µM [rising, single point]
20 | COc1ccccc1N1CCN(C(=O)/C=C/c2ccc(C)cc2)CC1 | 12.6 µM [rising, single point] | 12.6 µM [rising, single point]
21 | COc1ccc(OC(=O)COc2ccc(C)cc2)cc1 |  | 7.08 µM [rising, partial curve, poor fit]
22 | N#C/C(=C/c1cccs1)c1nc2ccccc2[nH]1 |  | 0.447 µM [rising, full curve]
23 | COc1ccc(CNC(=O)CCn2c(=O)oc3ccccc32)c(OC)c1 | 3.55 µM [rising, single point] | 11.2 µM [rising, partial curve, poor fit]
24 | C/C(=N/NC(=O)C1CC1(c1ccccc1)c1ccccc1)c1ccco1 (centres undefined) |  | 31.6 µM [rising, single point]
25 | Cc1ccc(-c2nn(-c3ccccc3)cc2/C=N/NC(=O)CSc2nnc(C)n2-c2ccccc2)cc1 | 35.5 µM [rising, single point] | 35.5 µM [rising, single point]
26 | S=C(NCc1ccco1)Nc1cccc(Cl)c1 |  | 10 µM [rising, partial curve]
27 | COc1ccc(N2CC(C(=O)OCC(=O)c3ccc(C)cc3)CC2=O)cc1 (centres undefined) | 0.0126 µM [rising, full curve] | 0.00562 µM [rising, full curve, poor fit]

Taken from above:
AC50 [2], Cc1cc(C)n(C(C)CC(=O)Nc2ccc(C)c(F)c2)n1 (centres undefined) reads 0.355 µM [falling, partial curve]
AC50 [1], N#Cc1nc(COc2ccccc2F)oc1NCCCn1ccnc1 reads 35.5 µM [rising, single point]

Next results follow.

Row | SMILES | AC50 [1] | AC50 [2]
28 | COc1ccccc1-n1c(=O)oc2ccc(Cl)cc2c1=O | 2.82 µM [rising, single point] | 6.31 µM [rising, single point]
29 | N#CCC(=O)Nc1cc(C(F)(F)F)ccc1N1CCOCC1 |  | 0.0891 µM [falling, partial curve]
30 | COc1ccc(CCNC(=O)Cn2c(=O)c3cccn3c3ccccc32)cc1OC |  | 11.2 µM [rising, single point]
31 | CC(C)(C)c1ccc(-c2nc(NCc3cccnc3)c3ccccc3n2)cc1 | 17.8 µM [falling, single point] | 11.2 µM [falling, single point]
32 | CCCCN(C)S(=O)(=O)c1ccc(C(=O)Nc2nnc(-c3ccco3)o2)cc1 | 1.58 µM [falling, partial curve, poor fit] | 
33 | CC(=O)Nc1c(C)nn(-c2ccccc2)c1N1CCC(C(=O)Nc2cccc(C(F)(F)F)c2)CC1 | 0.891 µM [rising, partial curve] | 0.891 µM [rising, partial curve, poor fit]
34 | CCc1nnc2c3ccccc3nc(N3CCN(c4cc(C)ccc4C)CC3)n12 | 35.5 µM [falling, single point] | 17.8 µM [falling, partial curve, poor fit]
35 | O=C(Nc1nnc(SCc2ccccc2Cl)s1)c1cccc([N+](=O)[O-])c1 | 20 µM [rising, single point] | 35.5 µM [rising, single point]
36 | COc1cccc(Nc2ncc3nc(CCc4ccccc4)c(=O)n(Cc4cccs4)c3n2)c1 | 15.8 µM [falling, partial curve] | 10 µM [falling, partial curve]
37 | COc1ccc(N2CCN(S(=O)(=O)CCNC(=O)c3c(F)cccc3Cl)CC2)cc1 | 5.62 µM [rising, partial curve, poor fit] | 0.282 µM [rising, partial curve, poor fit]
38 | CC(=O)Nc1cc(C(=O)Nc2ccc3c(c2)N(C)C(=O)c2ccccc2S3)ccc1C |  | 7.08 µM [rising, partial curve]
39 | CCOc1ccc(-c2onc(C(F)(F)F)c2-c2cscn2)c(O)c1 |  | 11.2 µM [rising, single point]
40 | COc1ccc(/C=N/NS(=O)(=O)c2ccc(C)cc2)cc1OC(=O)c1ccccc1 | 12.6 µM [rising, partial curve] | 17.8 µM [rising, partial curve]
41 | CCOC(=O)C1(C)NC(c2cccs2)C2C(=O)N(c3ccc(OC)cc3)C(=O)C21 (centres undefined) | 0.02 µM [falling, full curve, poor fit] | 0.02 µM [falling, full curve, poor fit]
42 | COc1ccc(-c2ccc(=O)[nH]n2)cc1 | 0.891 µM [falling, full curve, poor fit] | 0.447 µM [falling, full curve, poor fit]
43 | CCCOC(=O)c1ccc(NC(=O)CCC(=O)OCC)cc1 |  | 0.794 µM [falling, full curve, poor fit]
44 | Cc1ccc(Nc2nc(CSc3nnnn3-c3ccccc3)cc(=O)[nH]2)cc1 | 12.6 µM [rising, partial curve] | 14.1 µM [rising, partial curve]
45 | O=C(Nc1nnc(S(=O)(=O)N2CCc3ccccc32)s1)c1ccccc1Cl | 7.08 µM [rising, partial curve, poor fit] | 11.2 µM [rising, partial curve, poor fit]
46 | CC1(C)Cc2ccccc2-c2nnc(SCC(=O)N3CCN(c4ccccc4)CC3)n21 |  | 8.91 µM [rising, partial curve]
47 | CCOc1ncccc1C(=O)NCc1ccccc1F |  | 0.141 µM [rising, full curve, poor fit]
48 | CN1CCC[C@@H](CC2c3ccccc3Sc3ccccc32)C1 | 7.08 µM [falling, partial curve, poor fit] | 12.6 µM [falling, single point]
49 | C/C(=N\Nc1nc2c(s1)CCCC2)c1ccc(Cl)cc1 | 35.5 µM [falling, single point] | 25.1 µM [falling, single point]
50 | O=C(O)CCSCCC(=O)O | 35.5 µM [falling, single point] | 1.78 µM [falling, partial curve]
51 | CCOC(=O)C1CCCN(C(=O)c2ccc(NC(=O)c3nsc4ccccc34)cc2)C1 (centres undefined) | 0.398 µM [rising, full curve, poor fit] | 0.141 µM [rising, full curve, poor fit]
52 | Cc1ccccc1Nc1c(-c2ccccn2)nc2ccccn12 |  | 10 µM [rising, partial curve, poor fit]
53 | O.O.O.O=S(=O)([O-])OC[C@H]1O[C@@H](O[C@]2(COS(=O)(=O)[O-])O[C@H](OS(=O)(=O)[O-])[C@@H](OS(=O)(=O)[O-])[C@@H]2OS(=O)(=O)[O-])[C@H](OS(=O)(=O)[O-])[C@@H](OS(=O)(=O)[O-])[C@@H]1OS(=O)(=O)[O-].[Al] |  | 10 µM [rising, single point]
